In PubChem BioAssay AID2685 (National Center for Advancing Translational Sciences (NCATS), 2010):
Some of the results follow. Further columns of the screen follow, without active or inactive calls. Most of these compounds were active or inconclusive in the main read-out, so they are no random draw. The note in brackets gives the kind of curve behind each potency; many fits are weak.

Test: qHTS Assay for Lipid Storage Modulators in Drosophila S3 Cells;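 as to cell number change: cells counted by Cell Tracker Red CMTPX staining in the red channel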
Conditions: BODIPY lipid droplet fluorescence, 18-24 h; for cell number change: measured here: cell count max response, cells fed with added oleic acid
In short: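 Drosophila S3 cells got compounds at several concentrations plus oleic acid (400 uM solution). Laser-scanning cytometry with 488 nm excitation read lipid droplets at 500-530 nm and cells at 575-640 nm. Percent activity was relative to 20 uM Triacsin C.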

[1] = measured here: cell number channel AC50, cells fed with added oleic acid
[2] = measured here: lipid fluorescence (Fed channel) AC50, cells fed with added oleic acid

## CCOC(=O)C(CC)Sc1cc(C)nc2ccc(OC)cc12 (configuration not stated)
  cell number change: 14%
[1]
  AC50: 0.206 µM [rising, partial curve, poor fit]
[2]
  AC50: 2.06 µM [rising, full curve, poor fit]

## Cc1ccc(OCCOC(=O)c2cccc(S(=O)(=O)N3CC(C)OC(C)C3)c2)cc1 (configuration not stated)
  cell number change: 1.25%
[2]
  AC50: 6.51 µM [rising, single point]

## COc1cc(N/C(=N/S(=O)(=O)c2ccccc2)c2ccccc2)ncn1
  cell number change: 1.72%
[2]
  AC50: 29.1 µM [rising, single point]

## O=C(Nc1nnc(-c2ccccc2)o1)c1cc(Cl)sc1Cl
  cell number change: -33.3%
[1]
  AC50: 0.164 µM [falling, full curve, poor fit]

## COc1ccc(C(=O)NNC(=O)Cc2ccc([N+](=O)[O-])cc2)cc1
  cell number change: 17.4%
[2]
  AC50: 16.4 µM [rising, partial curve, poor fit]

## Cc1cc2nc(N=C(N)N)nc(C)c2cc1C
  cell number change: 43.5%
[1]
  AC50: 16.4 µM [rising, single point]

## COc1ccc(S(=O)(=O)N(C)C)cc1NC(=O)CCNC(=O)c1ccco1
  cell number change: 18.5%
[2]
  AC50: 0.231 µM [rising, full curve, poor fit]

## COC(=O)Cc1cc(OC)c(OC)cc1S(=O)(=O)N(C)C
  cell number change: -46.5%
[1]
  AC50: 0.58 µM [falling, full curve, poor fit]

## C=CCN1C(=O)c2ccc(C(=O)N(CC(C)C)c3c(N)n(CCCC)c(=O)[nH]c3=O)cc2C1=O
  cell number change: 2.01%

## O=C(Cn1c(=O)oc2ccccc21)N1CCOCC1
  cell number change: -9.87%
[2]
  AC50: 0.0259 µM [falling, full curve, poor fit]

## CN1CCN(C(c2ccc(C(F)(F)F)cc2)c2cc(Cl)c3cccnc3c2O)CC1 (configuration not stated)
  cell number change: 11.3%
[2]
  AC50: 29.1 µM [falling, single point]

## CCCC1(C(=O)OCC)NC(c2ccc(O)cc2)C2C(=O)N(c3cccc(C(C)=O)c3)C(=O)C21 (configuration not stated)
  cell number change: -10.3%
[2]
  AC50: 29.1 µM [rising, single point]

## COc1ccc([N+](=O)[O-])cc1NC(=O)c1cncc(Br)c1
  cell number change: -74.2%
[1]
  AC50: 29.1 µM [falling, single point]

## O=C1CCN(Cc2cccnc2)CCN1[C@H](CO)Cc1ccccc1
  cell number change: 26%
[1]
  AC50: 0.461 µM [rising, full curve, poor fit]
[2]
  AC50: 0.58 µM [rising, single point]

## CCOc1ccccc1NC(=O)c1ccc2c(c1)C(=O)N(CC1CCCO1)C2=O (configuration not stated)
[2]
  AC50: 29.1 µM [falling, single point]

## CCOc1ccccc1N(C(=O)c1snc(C(N)=O)c1N)C(C(=O)NC1CCCC1)c1cccs1 (configuration not stated)
  cell number change: -22.9%
[2]
  AC50: 29.1 µM [falling, single point]

## COc1cc(C(=O)NCc2ccc(-c3nc4ccccc4o3)cc2)cc(OC)c1OC
[1]
  AC50: 6.51 µM [falling, single point]

## COc1ccccc1C(=O)NCC(=O)OC(C)C(=O)NC1CCCCC1C (configuration not stated)
  cell number change: -13.2%
[2]
  AC50: 6.51 µM [falling, partial curve]

## COC(=O)c1cccc(NC(=O)CSc2nncn2-c2ccccn2)c1
  cell number change: -7.39%
[2]
  AC50: 29.1 µM [falling, single point]

## CN(C)c1ccc(N=C/C=C2\N(C)c3ccccc3C2(C)C)cc1
  cell number change: 18.7%

## O=C(CSc1nnc(-c2ccc(F)cc2)c2ccccc12)NCC1CCCO1 (configuration not stated)
  cell number change: 37.6%
[1]
  AC50: 6.51 µM [rising, single point]
[2]
  AC50: 6.51 µM [rising, partial curve, poor fit]

## CN(C)CCCOC(=O)c1ccc(Cl)cc1Cl
  cell number change: -15%
[2]
  AC50: 7.31 µM [falling, partial curve, poor fit]

## Cc1ccc(-c2nnc(SCC(=O)N3CCCC3)o2)cc1
  cell number change: -0.0726%

## CCOc1nc2cnccc2n(CC(=O)Nc2c(C)cccc2CC)c1=O
  cell number change: 2.95%
[2]
  AC50: 6.51 µM [rising, single point]

## Cc1c(-c2ccccc2)nc(N)c(C#N)c1-c1cccnc1
  cell number change: 10.8%
[1]
  AC50: 1.64 µM [rising, partial curve]
[2]
  AC50: 0.366 µM [rising, partial curve]

## O=C(C1CCCN(Cc2cccc(F)c2)C1)N1CCCCC1 (configuration not stated)
  cell number change: -120%
[1]
  AC50: 25.9 µM [falling, partial curve, poor fit]
[2]
  AC50: 20.6 µM [falling, partial curve]

## O=C(OCCN1CCCC1)C1(c2ccccc2)CCCC1
  cell number change: 3.93%
[2]
  AC50: 0.146 µM [falling, full curve, poor fit]

## CC(C)NC(=O)C1CC(=O)N(C(C)c2ccccc2)C1 (configuration not stated)
  cell number change: -30.1%
[1]
  AC50: 0.146 µM [falling, full curve]
[2]
  AC50: 1.46 µM [falling, full curve]

## CCOC(=O)[C@H]1[C@H]2COc3ccc(Cl)cc3[C@@H]2N2C(=O)c3cc(C)ccc3NC(=O)[C@@]12C
[2]
  AC50: 0.461 µM [falling, single point]

## COc1cccc(NC(=O)c2ccc(S(=O)(=O)N3CCCC3)cc2)c1
  cell number change: -6.67%
[2]
  AC50: 0.206 µM [rising, single point]

## COc1cc(C(C(=O)NCc2ccccc2)N(C(=O)c2snc(C(N)=O)c2N)C2CCCC2)cc(OC)c1OC (configuration not stated)
  cell number change: -2.63%

## S=C(Nc1ccc(Cl)c(Cl)c1)NC1CCCCC1
  cell number change: -28.8%

## Cc1ccccc1NS(=O)(=O)c1ccc(OCC(=O)N2CCCCC2)cc1
  cell number change: 52.4%
[1]
  AC50: 8.2 µM [rising, partial curve]
[2]
  AC50: 0.58 µM [rising, single point]

## COc1ccc(CNC(=O)N2CCN(c3cccc(Cl)c3)CC2)cc1OC
  cell number change: 7.21%
[2]
  AC50: 29.1 µM [rising, partial curve, poor fit]

## CCn1c(SCC(=O)c2cc(C)n(C)c2C)nnc1-c1ccccc1
  cell number change: 117%
[1]
  AC50: 4.11 µM [rising, full curve]
[2]
  AC50: 8.2 µM [rising, partial curve]

## Cc1ccc(-c2nn(-c3ccccc3)cc2C(=O)N2CCOCC2)cc1
  cell number change: 20.8%
[1]
  AC50: 3.66 µM [rising, single point]

## Cc1ccccc1NN=Nc1nc2c([nH]1)c(=O)n(C)c(=O)n2C
  cell number change: 148%
[1]
  AC50: 6.51 µM [rising, full curve]
[2]
  AC50: 0.731 µM [rising, full curve]

## COC(=O)c1sccc1NC(=O)c1ccc(OC)cc1
  cell number change: -31.9%
[1]
  AC50: 2.31 µM [falling, full curve, poor fit]
[2]
  AC50: 0.82 µM [rising, single point]

## Cc1ccsc1/C=N\NC(=O)c1n[nH]c2c1CCC2
  cell number change: -31.7%
[1]
  AC50: 29.1 µM [falling, partial curve, poor fit]
[2]
  AC50: 0.231 µM [falling, full curve, poor fit]

## CC(C)c1onc(C(=O)NCc2ccccc2)c1[N+](=O)[O-]
  cell number change: 0.963%
[1]
  AC50: 6.51 µM [rising, single point]
[2]
  AC50: 6.51 µM [rising, single point]

## CC(C)C(=O)N1CCN(c2ccccc2NC(=O)c2ccco2)CC1
  cell number change: 18.4%
[1]
  AC50: 0.291 µM [rising, partial curve, poor fit]

## COC(=O)[C@]1(Cc2ccccc2)N[C@H](c2ccc(-c3cccc(Cl)c3)cc2)[C@@H]2C(=O)N(C)C(=O)[C@@H]21
  cell number change: 3.04%
[1]
  AC50: 2.06 µM [falling, partial curve]

## COc1cccc(NC(=O)Nc2nnc(Cc3ccccc3F)s2)c1
  cell number change: -33.1%
[1]
  AC50: 29.1 µM [falling, single point]

## S=c1[nH]nc(COc2ccccc2)n1/N=C/c1ccc(Cl)c(Cl)c1
  cell number change: -42.7%
[1]
  AC50: 29.1 µM [falling, single point]
[2]
  AC50: 29.1 µM [falling, single point]

## Cc1nc(-c2cccc(NC(=O)Cc3ccccc3)c2)cs1
  cell number change: 75.5%
[1]
  AC50: 3.66 µM [rising, full curve]
[2]
  AC50: 3.26 µM [rising, partial curve, poor fit]

## COC(=O)c1sccc1NC(=S)N1CCN(c2ccccc2)CC1
  cell number change: 5.88%
[2]
  AC50: 0.651 µM [rising, full curve, poor fit]

## Cc1c(Cl)c(-c2n[nH]c(=S)n2CC(C)C)nn1C
  cell number change: 9.87%
[2]
  AC50: 6.51 µM [rising, partial curve]

## Cc1ccc(S(=O)(=O)N2CCCCC2)cc1C(=O)NCCc1ccccc1
  cell number change: 33.5%
[1]
  AC50: 11.6 µM [rising, partial curve, poor fit]

## O=C(COc1ccccc1F)NCC(c1ccc(F)cc1)N1CCOCC1 (configuration not stated)
  cell number change: -20.1%
[2]
  AC50: 2.31 µM [rising, single point]

## CCOc1ccccc1NS(=O)(=O)c1ccc(Br)s1
  cell number change: -9.64%
[2]
  AC50: 29.1 µM [rising, single point]

## COc1ccc(N(CC(=O)Nc2nccs2)S(=O)(=O)c2c(C)nn(C)c2C)cc1
[1]
  AC50: 0.731 µM [rising, single point]
[2]
  AC50: 1.16 µM [rising, single point]

## CC(=O)c1cccc(NC(=O)C(C)OC(=O)/C=C/c2cccs2)c1 (configuration not stated)
  cell number change: 12.4%

## Cc1cccc(C)c1NC(=O)C(=O)NCCCN1CCOCC1
  cell number change: 37.9%
[1]
  AC50: 32.6 µM [rising, single point]

## CNC(=O)COC(=O)c1ccc2c(c1)S(=O)(=O)c1ccccc1C2=O
  cell number change: 2.25%
[2]
  AC50: 0.58 µM [falling, single point]

## COc1ccc(Cl)cc1NC(=O)CN(C)C(=O)c1sccc1-c1ccccc1
  cell number change: -14.9%
[2]
  AC50: 8.2 µM [falling, partial curve, poor fit]

## Cc1cc(Nc2ccccc2)nc(N2CCN(C(=O)c3ccc4c(c3)OCO4)CC2)n1
  cell number change: 4.21%
[2]
  AC50: 0.146 µM [rising, full curve]
